This note sets out measurements from paper PMC5355280.

Sequences of proteins named here, by UniProt entry; tags and fusion partners are left off. Residues count along the entry.
UniProt P08476, residues 311-426: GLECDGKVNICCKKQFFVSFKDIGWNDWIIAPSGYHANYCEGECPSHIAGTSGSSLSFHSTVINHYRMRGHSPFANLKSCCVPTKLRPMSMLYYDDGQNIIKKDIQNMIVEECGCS
UniProt P22004, residues 375-513: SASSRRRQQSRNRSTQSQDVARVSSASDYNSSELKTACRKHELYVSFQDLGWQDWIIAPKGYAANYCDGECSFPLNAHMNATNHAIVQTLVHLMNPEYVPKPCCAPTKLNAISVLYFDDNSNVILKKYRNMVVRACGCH

Results are given in words; binding and its absence hold for the method and conditions named. For part of these data: Binding seen in cells or lysates may run through a third protein. Some binding calls cover weakened binding; strength is not graded here.

The target of test [1] is T1, Chordin-like 2 (CHRDL2), secreted, in HCT116 cell culture medium (human (endogenous in HCT116)) (UniProt Q6WN34).
T1 sequence: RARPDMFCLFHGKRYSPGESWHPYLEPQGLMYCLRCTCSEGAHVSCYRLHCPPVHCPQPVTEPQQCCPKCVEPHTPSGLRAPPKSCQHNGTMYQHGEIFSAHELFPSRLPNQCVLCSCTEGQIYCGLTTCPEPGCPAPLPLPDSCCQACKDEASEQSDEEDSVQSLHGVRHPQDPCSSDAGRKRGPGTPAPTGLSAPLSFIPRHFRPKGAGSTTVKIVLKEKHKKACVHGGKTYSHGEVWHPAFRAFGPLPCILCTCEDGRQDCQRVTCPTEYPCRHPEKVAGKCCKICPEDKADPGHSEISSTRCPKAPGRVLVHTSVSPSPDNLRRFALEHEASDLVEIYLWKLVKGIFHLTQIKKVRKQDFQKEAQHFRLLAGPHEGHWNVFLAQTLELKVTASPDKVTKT
The test can be described thus: co-IP; cell culture media, CHRDL2 and secreted Activin A (Supplementary Figure S2A, S2B); details not shown.

For test [2], the target named is T1, Chordin-like 2 (CHRDL2), secreted, in HCT116 cell culture medium (human (endogenous in HCT116)). The test is described as follows: co-IP; HCT116 culture media concentrated 10-fold, pre-cleared with normal IgG 3 h at 4°C; incubated with anti-CHRDL2, anti-BMP2, anti-BMP4, anti-BMP6 or normal IgG overnight at 4°C, protein A+G agarose beads 2 h at 4°C, five washes; western blot.

In test [3] the target is T2, Purified recombinant protein of Homo sapiens CHRDL2 (TP320245) (human) (UniProt Q6WN34).
T2 sequence: T1 sequence
The test can be described thus: co-IP; CHRDL2 and mature recombinant human Activin A (Supplementary Figure S2C); details not shown; both purified.

For test [4], the target named is T2, Purified recombinant protein of Homo sapiens CHRDL2 (TP320245) (human). The test can be described thus: co-IP; mixture of recombinant CHRDL2 and recombinant BMP2, IP with anti-CHRDL2; done similarly to the co-IP of culture media; both purified.

Take “Activin A, secreted mature form, in cell culture medium (from UniProt P08476 311-426) (ligand)”: the binding entry in test [1] was “binds”.

For the molecule “BMP6, secreted mature form, in HCT116 cell culture medium (from UniProt P22004 375-513) (ligand)”, the binding entry in test [2] was “binds”.

“mature recombinant human Activin A (from UniProt P08476 311-426) (ligand)”: in test [3], the binding result is reported as “binds”.

B1: BMP2, secreted mature form, in HCT116 cell culture medium (ligand, UniProt P12643 283-396)
chain: QAKHKQRKRLKSSCKRHPLYVDFSDVGWNDWIVAPPGYHAFYCHGECPFPLADHLNSTNHAIVQTLVNSVNSKIPKACCVPTELSAISMLYLDENEKVVLKNYQDMVVEGCGCR
Consider B1, for which, in test [2], the binding result is reported as “binds”.

B2: Purified recombinant protein of Homo sapiens BMP2 (TP750012) (ligand, UniProt P12643 283-396)
chain: B1 chain
Regarding B2, in test [4], the binding entry is listed as “binds”.

B3: BMP4, secreted mature form, in HCT116 cell culture medium (ligand, UniProt P12644 293-408)
chain: SPKHHSQRARKKNKNCRRHSLYVDFSDVGWNDWIVAPPGYQAFYCHGDCPFPLADHLNSTNHAIVQTLVNSVNSSIPKACCVPTELSAISMLYLDEYDKVVLKNYQEMVVEGCGCR
Turning to B3, the binding result in test [2] is on record as “binds”.
